In PubChem BioAssay AID1347422 (Sanford-Burnham Center for Chemical Genomics, 2020):
Whole data set: some 1,000 compounds, median “thermal shift dTm” near 0.19, cut for the highest 2% near 1.7. Some of the results follow. The source made the active and inactive calls.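 Rule for the calls: active = mean rise in melting temperature of at least 1 degC over same-plate control wells; inactive = below that, where a call was filed.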

Amino acid sequences for entries named in this document (tags omitted). A change or cut given only in a name is not applied to a line headed by its entry.
UniProt O00391: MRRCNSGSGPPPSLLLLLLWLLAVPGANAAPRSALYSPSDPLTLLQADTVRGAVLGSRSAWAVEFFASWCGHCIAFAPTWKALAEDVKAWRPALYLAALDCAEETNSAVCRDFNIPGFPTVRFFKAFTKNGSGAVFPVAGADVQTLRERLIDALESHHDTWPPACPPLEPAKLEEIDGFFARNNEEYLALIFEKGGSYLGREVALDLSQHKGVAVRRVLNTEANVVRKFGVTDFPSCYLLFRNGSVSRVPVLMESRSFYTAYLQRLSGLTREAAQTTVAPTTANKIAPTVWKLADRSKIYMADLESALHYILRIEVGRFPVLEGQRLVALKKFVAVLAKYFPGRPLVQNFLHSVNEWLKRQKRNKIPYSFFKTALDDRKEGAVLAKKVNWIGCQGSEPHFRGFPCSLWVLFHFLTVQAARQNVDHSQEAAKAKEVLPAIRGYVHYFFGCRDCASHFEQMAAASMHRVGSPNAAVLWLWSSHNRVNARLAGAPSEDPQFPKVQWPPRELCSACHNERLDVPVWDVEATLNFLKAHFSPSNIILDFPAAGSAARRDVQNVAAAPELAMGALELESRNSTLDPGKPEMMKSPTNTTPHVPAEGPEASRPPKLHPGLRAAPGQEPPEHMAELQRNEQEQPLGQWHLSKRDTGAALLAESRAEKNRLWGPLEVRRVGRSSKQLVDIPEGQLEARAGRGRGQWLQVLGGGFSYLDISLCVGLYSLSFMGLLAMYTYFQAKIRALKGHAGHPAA

target: Sulfhydryl oxidase 1 (Homo sapiens) (UniProt O00391); experiment: ligand-induced melting shift of human QSOX1 – biophysical, protein thermal shift, single concentration, QSOX1 inhibitor project, confirmation (AID 1347422); settings: recombinant hQSOX1 thermal shift, Sypro Orange, at 25 µM, stronger effect = higher value;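 note: dTm is compound Tm minus mean Tm of DMSO-only wells on that plate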

For O=C(Nc1ccc(S(=O)(=O)Nc2ccc(Cl)cc2)cc1)c1ccc2c(c1)OCO2, the thermal shift dTm was inactive: -0.51 °C.
For COc1ccc(OC)c(NS(=O)(=O)c2ccc(NC(=O)c3ccccc3SC)cc2)c1, the thermal shift dTm was inactive: -4.29 °C.
With COc1ccc(C(=O)Nc2ccc(NC(C)=O)cc2)cc1C the thermal shift dTm was active: 1.48 °C.
With O=S(=O)(Nc1ccc2c(c1)CCCC2)c1ccc2c(c1)OCCO2 the thermal shift dTm was inactive: -0.01 °C.
With CCc1cc(-c2n[nH]c(C)c2Oc2ccccc2)c(O)cc1OC the thermal shift dTm was inactive: -0.13 °C.
In the case of Cc1ccc(CCC(=O)Nc2ccc(CC#N)cc2)cc1, the thermal shift dTm is reported as active: 1.11 °C.
With COc1ccc(S(=O)(=O)NC(C)C2C3CC4CC(C3)CC2C4)cc1 (configuration not stated) the thermal shift dTm was inactive: -0.18 °C.
CCOc1ccc(NC(=S)N2CCC(C(N)=O)CC2)cc1 was tested, and the thermal shift dTm was inactive: -0.13 °C.
With Nc1c(-c2nc(-c3ccccc3)cs2)nnn1-c1ccccc1 the thermal shift dTm was inactive: -0.03 °C.
With CCCC(=O)Nc1ccc(NC(=O)CCc2ccccc2)cc1 the thermal shift dTm was inactive: -0.1 °C.
For CCc1cccc(NC(=O)Nc2ccc(F)cc2)c1, the thermal shift dTm was inactive: -1.29 °C.
In the case of Cc1ccc(C(=O)Nc2ccc3c(c2)OCO3)cc1S(=O)(=O)Nc1cccc(C)c1C, the thermal shift dTm is reported as active: 1.17 °C.
Fc1ccc(Nc2nnc(-c3cccnc3)s2)cc1Cl was tested, and the thermal shift dTm was inactive: -0.63 °C.

Going from CCSC1=N/C(=C\c2ccc(-c3cccc(Br)c3)o2)C(=O)S1 to CCc1ccc(C(=O)Nc2cccc(-c3nn[nH]n3)c2)s1, the thermal shift dTm falls from 0.39 °C to 0.28 °C.

First: COc1ccc(-c2nc3ccccc3s2)cc1NC(=O)c1ccccc1
Second: O=C(Nc1ccon1)c1cc(-c2ccccc2)nc2ccccc12
The thermal shift dTm of the first is lower: 0.15 °C for the first, 0.28 °C for the second.

Compared with CC(C)(O)C#Cc1ccc(C(=O)N2CCN(c3cccc(Cl)c3)CC2)cc1, N#CCc1ccc(NC(=O)c2ccc(N3CCCCC3)cc2)cc1 is higher in thermal shift dTm: 0.1 °C for the first, 0.46 °C for the second.

Going from COc1ccc(NC(=O)Nc2ccc(C)cc2C)cc1 to CC(=O)Nc1cccc(NC(=O)Nc2cc(C)ccc2C)c1, the thermal shift dTm rises from 0.05 °C to 0.14 °C.

First: COc1ccc(C(=O)O/N=C(\N)Cc2ccc(Cl)c(Cl)c2)cc1
Second: N/C(=N\OC(=O)c1ccc2c(c1)OCO2)c1ccc(Br)cc1
The thermal shift dTm of the first is higher: 0.4 °C for the first, 0.03 °C for the second.

Going from Cc1ccccc1NC(=O)Nc1ccc(C(F)(F)F)cc1 to COc1cc(NC(=O)Nc2ccccc2)c(OC)cc1Cl, the thermal shift dTm falls from 0.8 °C to 0.09 °C.

Going from N#CC1=C(N)Oc2cc(N)ccc2C1c1ccc2ccccc2c1 (configuration not stated) to Fc1ccc(Nc2nc(NCc3ccccc3)c3ccccc3n2)cc1, the thermal shift dTm falls from 0.29 °C to 0.25 °C.

Going from OCc1cc(Cl)c(OCc2ccc(Br)cc2)c(Cl)c1 to COc1cc(/C=N/O)cc(Cl)c1OCc1ccccc1Cl, the thermal shift dTm falls from 0.3 °C to 0.06 °C.

Compared with CCOc1ccc(Nc2nnc(C)s2)cc1, C=C(C)COc1ccc(NC(=O)c2cccnc2)cc1 is lower in thermal shift dTm: 0.28 °C for the first, 0.13 °C for the second.

Compared with NC(=O)CSc1nc2sc3c(c2c(=O)n1Cc1ccccc1)CCCCC3, Cc1ccc(NC(=O)N2CCC(Cc3ccccc3)CC2)cc1 is lower in thermal shift dTm: 0.2 °C for the first, 0.07 °C for the second.

Compared with C(=C\c1nn2c(-c3ccco3)nnc2s1)/c1cccs1, O=C(/C=C/c1cccs1)NCCCCNC(=O)/C=C/c1cccs1 is higher in thermal shift dTm: 0.58 °C for the first, 0.77 °C for the second.

Compared with CCOC(=O)Cc1cc(=O)n2[nH]c(COC)c(-c3ccc(Cl)cc3)c2n1, CCc1cc(OCCOc2cccc3cccnc23)ccc1Cl is lower in thermal shift dTm: 0.69 °C for the first, 0.11 °C for the second.

Going from O=C(NCCc1ccccc1)c1ccc(NC(=O)c2ccccn2)cc1 to O=C(Nc1ccc(C(=O)Nc2cccnc2)cc1)c1ccccc1, the thermal shift dTm rises from 0.13 °C to 0.97 °C.

Going from Cc1cc(Br)cc(C)c1NC(=O)/C=C/c1ccco1 to Cc1cc(-c2nc3c(cnn3Cc3ccco3)[nH]2)ccc1O, the thermal shift dTm falls from 0.52 °C to 0.23 °C.

First: CCOc1cc(CNc2nnn(C)n2)cc(Br)c1OCc1ccccc1Cl
Second: O=C(NCCCn1ccnc1)c1cn(Cc2ccc(F)cc2Cl)nn1
The thermal shift dTm of the first is higher: 0.72 °C for the first, 0.09 °C for the second.

First: COCCOc1ccc(C(=O)Nc2ccc(NC(C)=O)cc2)cc1
Second: O=C(Nc1ccc2ncccc2c1)c1cccc([N+](=O)[O-])c1
The thermal shift dTm of the first is lower: 0.09 °C for the first, 0.53 °C for the second.

First: Clc1ccc(C2=CC(c3cccs3)n3nnnc3N2)cc1 (configuration not stated)
Second: Fc1ccc(-c2csc(Nc3ccc(Cl)cn3)n2)cc1
The thermal shift dTm of the first is higher: 0.63 °C for the first, 0.07 °C for the second.

First: CC(C)(C)c1cc(CN2CCCC(C(N)=O)C2)cc(C(C)(C)C)c1O (configuration not stated)
Second: CN1CCN(S(=O)(=O)c2ccc(NC(=O)c3ccc(Cl)s3)cc2)CC1
The thermal shift dTm of the first is higher: 0.84 °C for the first, 0.13 °C for the second.

Compared with Cc1ccc2[nH]cc(CCNC(=O)c3cccc(NC(=O)C(C)C)c3)c2c1, CSc1cccc(NC(=O)NCc2ccccn2)c1 is higher in thermal shift dTm: 0.16 °C for the first, 0.18 °C for the second.

Going from O=S(=O)(c1ccc(Cl)cc1)N1CCCC1c1nc(-c2ccccc2)no1 (configuration not stated) to CC(=O)Nc1ccc(-c2nc3ccccc3s2)c(Cl)c1, the thermal shift dTm rises from 0.2 °C to 0.68 °C.

First: O=C(Nc1ccc2c(c1)OCCO2)c1ccc(F)c(F)c1
Second: COc1ccc(OC(=O)COc2ccc(C)cc2Br)cc1
The thermal shift dTm of the first is lower: 0.13 °C for the first, 0.44 °C for the second.

First: Cc1nc(C)c(-c2csc(Nc3ccc(Cl)cn3)n2)s1
Second: Cc1ccc2c(c1)C(c1c[nH]c3ccccc13)(c1c[nH]c3ccccc13)C(=O)N2C
The thermal shift dTm of the first is lower: 0.16 °C for the first, 0.58 °C for the second.
